Experimental data taken from PubChem BioAssay AID449 (The Scripps Research Institute Molecular Screening Center, 2006).
The list shows a part of the results. Further columns of the screen follow, without active or inactive calls. Compounds called inactive in the main read-out are mostly missing here.

Sequences of proteins named here, by UniProt entry; tags and fusion partners are left off.
UniProt P21453, whole entry, looked up: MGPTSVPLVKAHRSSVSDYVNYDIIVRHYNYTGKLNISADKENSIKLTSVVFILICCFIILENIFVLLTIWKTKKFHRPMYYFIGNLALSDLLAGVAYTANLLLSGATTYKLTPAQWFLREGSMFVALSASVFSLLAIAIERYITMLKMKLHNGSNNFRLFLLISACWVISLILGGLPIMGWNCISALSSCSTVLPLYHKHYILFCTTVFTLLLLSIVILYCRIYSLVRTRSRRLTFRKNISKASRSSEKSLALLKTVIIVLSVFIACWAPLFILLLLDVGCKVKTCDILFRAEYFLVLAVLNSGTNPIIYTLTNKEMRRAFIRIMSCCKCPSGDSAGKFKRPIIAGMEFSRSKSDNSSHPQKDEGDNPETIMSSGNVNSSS

Target: Sphingosine 1-phosphate receptor 1 (Homo sapiens) (UniProt P21453)
Test: activation or potentiation of human S1P1 signaling – cell-based, primary and confirmation screens, CRE-bla reporter, primary screen (AID 449);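 further: forskolin at 4 µM as EC80 and the EC20 agonist is SEW2871; 100% = SEW2871 at its EC100 plus forskolin at EC80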
Conditions: S1P1 CRE-bla cells, forskolin, beta-lactamase FRET, potentiator mode; measured here: confirmation screen, triplicate average; at 9.5 µM; stronger effect = higher value; 100% = saturating reference agonist, 0% = basal; S1P1 agonist co-added at EC20, 2 nM

SMILES	activation [%]
CC(C)Oc1cc(O)c2c(=O)c(-c3ccc(O)cc3)coc2c1	88.2
O=C(Nc1cccc(C(F)(F)F)c1)C1CCCN1S(=O)(=O)c1cccc2cccnc12 (stereo unspecified)	65.6
Clc1ccc(OCCN2CCN(c3ncnc4sccc34)CC2)cc1	115
Cc1ccc(-c2nnc(SCc3ccccc3F)o2)cc1	89
C=CS(=O)(=O)c1ccc(Oc2ccc(S(=O)(=O)C=C)cc2)cc1	122
O=C(Nc1ccc(Cl)cc1)N1CCC(c2nc(-c3ccc(F)cc3)no2)CC1	82.5
CC(C)Cn1c(N)c(C(=O)CSc2ccc3c(c2)OCCO3)c(=O)n(C)c1=O	119
Cn1c(C(=O)N2CCCc3ccccc32)cc2sccc21	88.3
CCc1ccc(S(=O)(=O)NCCc2csc(-c3ccccc3)n2)s1	110
COc1ccc(CCNc2c(C)c(C)nc3ncnn23)cc1	104
CCN(C(=O)C1CCCCC1)c1nnc(-c2cccnc2)s1	67
Cc1ccc(Cl)cc1N1CCN(C(=O)C2CCN(c3nnc(-n4cccc4)s3)CC2)CC1	55
O=C(CSc1nnc(Cc2csc(Nc3cccc(Cl)c3)n2)o1)N1CCc2ccccc21	85.9
CCC(C)c1ccc2oc(-c3ccc(NC(=O)c4ncn[nH]4)cc3)nc2c1 (stereo unspecified)	104
Cc1oc(-c2ccccc2)nc1Cn1cccc1C1=NC(c2ccccc2)CO1 (stereo unspecified)	102
CCCCn1nnnc1SCC(=O)c1ccc(C)c(C)c1	75.2
CCOC(=O)c1ccc2nc(NC(=O)c3ccco3)sc2c1	59.8
CCCCOc1ccc(S(=O)(=O)Nc2cccnc2)cc1	93.7
COc1ccccc1N/C(N)=N/c1nc(CSc2ccc(C)cc2)cc(=O)[nH]1	77.8
O=C(Nc1ccc(C(F)(F)F)cc1)C1CCCN1S(=O)(=O)c1cccc2cccnc12 (stereo unspecified)	63.9
CCC(NC(=O)Nc1nnc(C(F)(F)F)s1)(C(F)(F)F)C(F)(F)F	117
OC(c1cccc(OCc2ccccc2)c1)c1nnc(-c2ccccc2)o1 (stereo unspecified)	101
CCC1CCCCN1C(=O)CSc1nnc(-c2c[nH]c3ccccc23)o1 (stereo unspecified)	61

Grouped by structure: the compounds so far containing a carbonyl joined to an NH by a bond outside any ring (six)
SMILES	activation [%]
O=C(Nc1cccc(C(F)(F)F)c1)C1CCCN1S(=O)(=O)c1cccc2cccnc12 (stereo unspecified)	65.6
O=C(Nc1ccc(Cl)cc1)N1CCC(c2nc(-c3ccc(F)cc3)no2)CC1	82.5
CCC(C)c1ccc2oc(-c3ccc(NC(=O)c4ncn[nH]4)cc3)nc2c1 (stereo unspecified)	104
CCOC(=O)c1ccc2nc(NC(=O)c3ccco3)sc2c1	59.8
O=C(Nc1ccc(C(F)(F)F)cc1)C1CCCN1S(=O)(=O)c1cccc2cccnc12 (stereo unspecified)	63.9
CCC(NC(=O)Nc1nnc(C(F)(F)F)s1)(C(F)(F)F)C(F)(F)F	117

Going on with the list.

SMILES	activation [%]
Brc1ccc2ncnc(Nc3ccc(N4CCOCC4)cc3)c2c1	61.1
Cc1cccc(OCCCCc2c(C)n[nH]c2C)c1C	95.8
Cc1nnc2ccc(Oc3ccc(-c4ccccc4)cc3)nn12	56.1
COCCN(C(=O)c1ccccc1)c1nnc(-c2cccnc2)s1	78.1
Cc1cc(C(=O)N2CCN(C(c3ccccc3)c3ccccc3)CC2)on1	67
COc1ccccc1-c1nc(-c2cccc(C)c2)no1	92.3
Cc1ccc(OCCn2cc(/C(N)=N/O)c3ccccc32)cc1C	69.8
CCCC(=O)Nc1ccc(-c2nc3cc(C)c(C)cc3o2)cc1	79.6
CN1/C(=C/C(=O)c2nc(S(C)(=O)=O)ncc2Cl)C(C)(C)c2ccccc21	75.4
O=S1(=O)C=C(Sc2nnc(-c3ccccc3)o2)c2ccccc21	120
O=S(=O)(c1cccs1)N1CCN(CC(O)COc2cc(Cl)ccc2Cl)CC1 (stereo unspecified)	96.9
CCOc1ccc(-c2noc(-c3cccnc3)n2)cc1OC	98.1
CC(=O)N1C=CN(C(C)=O)C(c2cn(C)c3ccccc23)C1c1cn(C)c2ccccc12 (stereo unspecified)	59.9
Cc1ccc(-c2csc(N3CCC(NS(=O)(=O)c4ccc5c(c4)OCCO5)CC3)n2)cc1	115
CCOC(=O)CN1C(=O)C(C)(C)Oc2ccc(C(=O)Nc3ccccc3OC)cc21	59.5
CC(=O)c1sc(NC(=O)C2(F)C(F)(F)C(F)(F)C(F)(F)C(F)(F)C2(F)F)nc1C	88.4
CC1CCc2nc(NC(=O)CSc3nc4ccccc4o3)sc2C1 (stereo unspecified)	105
Cc1cccc(-c2nc(C#N)c(NC3CCCCC3)o2)c1	71.6
CC1Cc2ccccc2N1c1ncnc2nc[nH]c12 (stereo unspecified)	82.1
Cc1ccc(-n2c(C)cc(C(=O)CSc3nnnn3C)c2C)cc1	67.2
Clc1ccccc1C1=Nn2c(nnc2-c2ccncc2)SC1	83
Cc1ccc(OCc2nc(-c3ccccc3)no2)c(C)c1	82.4
CC(=O)Oc1ccc(N2C(=O)C3C(C2=O)C2(C)C=CC3(C)O2)cc1 (stereo unspecified)	86

SMILES	activation [%]
O=C(C1CCC1)N1CCc2cc(S(=O)(=O)Nc3ccc4c(c3)OCCO4)ccc21	85.1
N#Cc1ccc(NC(=O)Nc2ccc(Cl)cc2)cc1	118
c1ccc(-c2ccc(-c3nc(-c4ccncc4)no3)cc2)cc1	95.1
COc1ccc2ncn(-c3ccccc3)c2c1	55.1
CC(=O)Nc1cc(OC(C)=O)c2nonc2c1OC(C)=O	102
COc1ccccc1-c1nc(-c2ccc(Br)cc2)no1	89.7
Cc1cc(C(=O)CSc2nnc(-c3cccnc3)n2-c2ccccc2F)c(C)n1C	101
O=C(Nc1ncc(Br)s1)C(Cc1ccccc1)n1cccc1 (stereo unspecified)	92.3
CCOC(=O)c1cnc(-n2nc(C)cc2C)nc1NC1CCCCC1	114
O=S1(=O)C=C(Sc2nc3cc(Cl)ccc3o2)c2ccccc21	117
CNc1oc(-c2ccc(OCc3ccccc3)cc2)nc1C#N	82.9
Cc1ccc2nc(C(F)(F)F)c(C#N)c(N)c2c1	62.3
Clc1ccc(CSc2nnc(-c3ccncc3)o2)c(Cl)c1	80.4
O=C(c1cc(-c2ccco2)on1)N1CCN(C(c2ccccc2)c2ccccc2)CC1	68.7
Cc1ccc(C(=O)Nc2nc(COc3ccccc3)cs2)s1	73.2
COc1ccc(Cc2nc(-c3ccc(-n4cccc4)cc3)no2)cc1OC	68.5
CC(=O)c1ccc(NC(=O)N2CCN(c3cccc(Cl)c3)CC2)cc1	75.1
Cc1cc(C(=O)CSc2nnnn2-c2ccc(O)cc2)c(C)n1Cc1ccc2c(c1)OCO2	87.5
CCc1ccc(NC(=O)c2cc(-c3ccco3)on2)cc1	71.2
Cc1ccc(C(C)C)c(OCc2nc(-c3nonc3N)no2)c1	78.7
N/C(=N\c1nc2c(c(=O)[nH]1)CCCC2)Nc1ccccc1	57
Cn1c(-c2c(N)n(C3CCCC3)c3nc4ccccc4nc23)nc2ccccc21	86.5
c1csc(CCNc2ncnc3sc4c(c23)CCC4)c1	117

SMILES	activation [%]
O=C(CSc1nnc(Cn2nnc3ccccc32)o1)N(Cc1ccc(F)cc1)c1ccccc1	89.2
CCc1c(C)sc(NC(=O)c2cc(-c3ccco3)on2)c1C#N	80.4
COc1cccc(-c2nnc3sc(C4CCCCC4)nn23)c1	91.4
COc1cccc2sc(Nc3nc(-c4ccccn4)cs3)nc12	82.5
c1ccc(CN2CCN(c3ncnc4c3[nH]c3ccccc34)CC2)cc1	62.3
CCOC(=O)CN(C(=O)CSc1nnc(-c2cccc(OC)c2)o1)c1ccc(F)cc1	65.9
CCCCOc1ncnc2c1[nH]c1ccc(F)cc12	99
CCN(CC)C(=O)C1CCN(S(=O)(=O)c2ccc3oc4ccccc4c3c2)CC1	85.9
Cc1cc2nc(-c3ccc(NC(=O)C(C)C)cc3)oc2cc1C	97.3
Cc1cc(N2CCOCC2)nc(NCc2ccccc2)n1	68.9
Oc1ccc(-c2nnc(SCC3CCCCC3)o2)cc1	106
O=C(Nc1cccc(C(F)(F)F)c1)N1CCC(c2nc(-c3ccc(F)cc3)no2)CC1	80.6
Cc1ccc2[nH]c3c(NCc4ccco4)ncnc3c2c1	85.3
CC(C)[C@H](NC(=O)OC(C)(C)C)c1nnc(SCC(=O)Nc2ccc(Br)cc2)o1	61.2
CCOc1nc(C)ccc1-c1noc(-c2ccncc2)n1	58.3
Clc1ccc(CCNc2ncnc3nc[nH]c23)cc1	89.1
CCOc1ccc(C(=O)Nc2c(C(N)=O)oc3ccccc23)cc1	58.6
COCCn1c(C)cc(C(=O)CSc2nnc(-c3cccnc3)n2-c2ccccc2F)c1C	86.9
CC(C)c1cc(C(F)(F)F)n2nc(C(=O)Nc3ccc4c(c3)OCO4)cc2n1	94.7
OC1(c2cccc(C(F)(F)F)c2)CCN(c2ncnc3c2[nH]c2ccc(F)cc23)CC1	104
CCOc1ccc(-c2nc(-c3ccccc3C)no2)cc1	104
O=C(Nc1ccc(S(=O)(=O)NCc2ccco2)cc1)c1ccc2ccccc2n1	70.1
O=C(NCc1ccccc1)N1CCN(c2ccc(Cl)c(Cl)c2)CC1	111

SMILES	activation [%]
Cc1ccc(C(C)C)c(OCc2ccc(-c3nnco3)cc2)c1	96
Fc1ccccc1COc1ccc(/C=N/n2cnnc2)cc1	86.8
CN=C(NC#N)SCC(=O)c1ccc(Cl)cc1Cl	65.6
CC1=C(C(=O)OCc2ccc3c(c2)OCO3)C(c2ccccc2)NC(=O)N1 (stereo unspecified)	83.9
Cc1ccc(NC(=O)c2cc(-c3ccco3)on2)cc1C	59.6
CC1=C(C(=O)OCc2ccc3c(c2)OCO3)C(c2ccc(Cl)cc2)NC(=O)N1 (stereo unspecified)	103
COC(=O)CS(=O)(=O)c1nnc([C@H](Cc2ccccc2)NC(=O)OC(C)(C)C)o1	85.5
O=C(CCc1nc(-c2ccccc2F)no1)Nc1ccc(Oc2ccccc2)cc1	116
CCN=c1scc(-c2ccc3c(c2)NC(=O)CO3)n1N=C1CCCC1	75
CCOc1ccc(-c2nnc(-c3cccs3)o2)cc1OCC	102
Cc1nn(Cc2ccc(Cl)c(Cl)c2)c(C)c1NC(=O)c1cc(CC(C)C)on1	90.3
Cc1cc(C(=O)CSc2nnnn2C)c(C)n1-c1cccc(F)c1	93.9
CC(C)c1cc(C(=O)N2CCN(C(c3ccccc3)c3ccccc3)CC2)no1	70.8
O=S(=O)(Nc1ccc2c(c1)OCCO2)c1ccc2oc3ccccc3c2c1	74.2
Cc1cccc(-n2ncc3c(N(C)C4CCCCC4)ncnc32)c1	65.2
COc1ccccc1Oc1ccc2c(c1)C(=O)N(c1cccc(O)c1)C2=O	93
O=C(Nc1nc(-c2nc3ccccc3s2)cs1)c1ccc(S(=O)(=O)N2CCOCC2)cc1	111
O=C(Nc1ccc(N2CCCCC2)c(Cl)c1)c1ncn[nH]1	101
CCOc1ccc(-c2nc(-c3ccc(OC)cc3)no2)cc1OCC	105
